Experimental data published in the supplement of paper PMC12889115.
This is one part of the list. Values are raw readings; no control value is given beside them.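 Primary screen: polymyxin B was added at a level permeabilizing Salmonella outer membranes while sparing inner membranes. DMSO wells, both with and without polymyxin B, established maximum growth. Plate-to-plate variation meant each plate was ranked on its own, and the lowest-OD600 compounds were selected as hits.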

Tested on: Salmonella enterica serovar Typhimurium SL1344
Assay: bacterial growth OD600 after 18 h with compound and polymyxin B; higher = more bacterial growth (less inhibition)
Conditions: 50 µM, Mueller-Hinton broth

Structure (SMILES)	bacterial growth OD600 (polymyxin B 0.75 µg/mL)	bacterial growth OD600 (polymyxin B 1 µg/mL)
COC(c1ccc2c(c1)CN(C(=O)c1cccc(C#CC(C)(C)O)c1)CCO2)C1CCCCC1 (configuration not stated)	-0.002	–
CCOC(=O)C1(CCc2ccccc2)CCN(C(=O)c2cc[n+]([O-])cc2)CC1	0.79	–
CCOC(=O)CNC(=O)NCc1cccnc1N1CCCCCCC1	–	0.706
COc1cccc(CN(C)C(=O)c2cn(C3CCCCC3)nn2)c1	–	0.983
CCCc1ncc(CNCc2cccnc2N(C)C)cn1	–	0.981
C/C=C(\C)C(=O)NCC1Cc2cc(-c3ccc(C(C)=O)s3)cc(Cl)c2O1 (configuration not stated)	0.003	–
CN(CC1CCCN(CCc2ccc(Cl)cc2)C1)C(=O)c1ccncc1 (configuration not stated)	–	0.891
CC(=O)NCc1cccnc1Oc1ccc(F)c(F)c1	–	0.944
CN(C)c1ncccc1CNS(=O)(=O)N1CCCCC1	–	0.716
Fc1cccc(F)c1CCC1CCCN(Cc2ncc[nH]2)C1 (configuration not stated)	0.759	–
COC(=O)CNC(=O)Cc1c2c(n(CC(C)C)c1C)CC(C)(C)CC2=O	–	0.762
CNc1ccc(C(=O)NCCCc2c(C)noc2C)cn1	–	1.11
CN(CCc1cn[nH]c1)C(=O)c1ccc(OC2CCN(Cc3ccccn3)CC2)cc1	–	0.988
O=C(c1cc(COc2ccc(F)c(F)c2)on1)N(CCO)Cc1ccccc1	–	0.814
CC(C)n1cc(CN2CCN(Cc3ccccc3F)C(CCO)C2)cn1 (configuration not stated)	–	1.02
CCOC(=O)C1(Cc2ccccc2C(F)(F)F)CCN(C(=O)C2=CCCC2)CC1	–	0.596

Arranged by number of heavy atoms (smallest number first): some entries from above
Structure (SMILES)	bacterial growth OD600 (polymyxin B 0.75 µg/mL)	bacterial growth OD600 (polymyxin B 1 µg/mL)
Fc1cccc(F)c1CCC1CCCN(Cc2ncc[nH]2)C1 (configuration not stated)	0.759	–
CN(CC1CCCN(CCc2ccc(Cl)cc2)C1)C(=O)c1ccncc1 (configuration not stated)	–	0.891
CCOC(=O)C1(Cc2ccccc2C(F)(F)F)CCN(C(=O)C2=CCCC2)CC1	–	0.596

Additional results follow:

Structure (SMILES)	bacterial growth OD600 (polymyxin B 0.75 µg/mL)	bacterial growth OD600 (polymyxin B 1 µg/mL)
CO[C@H]1[C@H](NC(=O)Cc2ccccc2)c2ccccc2C12CCN(C(=O)C1=CCCCC1)CC2	0.554	–
COC(=O)c1ccc(-c2nc(CN3CCCC3c3ccccc3OC)c(C)o2)cc1 (configuration not stated)	–	0.917
CCOc1ccc2nc(N3CCCC3C(=O)NCc3ccc4c(c3)OCO4)nc(C)c2c1 (configuration not stated)	0.833	–
Cc1oc(-c2ccc(NC(=O)Cc3ccccc3)cc2)nc1CNC(=O)CCc1nc2ccccc2[nH]1	0.718	–
OCCC1CN(Cc2cnn(-c3cccc(Cl)c3)c2)CCN1Cc1ccccc1F (configuration not stated)	–	0.859
CN(Cc1nc2cc(Cl)ccc2[nH]1)Cc1c(C(=O)N2CCCCC2)nc2sccn12	–	0.037
O=C(NCc1ccccc1F)c1ccc(N2CCC(NCCCOc3cccnc3)CC2)cc1	0.829	–
Cc1nc(N2CCCC2C(=O)NC2Cc3ccccc3C2)nc2cc(S(C)(=O)=O)ccc12 (configuration not stated)	0.731	–
CCCCc1nc(CN(C)CC2CCN(Cc3ccc(C)o3)CC2)c[nH]1	–	0.975
CC1(C)Cc2nc(N3CCOCC3)ncc2C(NC(=O)C2CC2)C1 (configuration not stated)	0.84	–
C=C(C)CNCC1(O)CCCN(Cc2ccccc2F)C1=O (configuration not stated)	–	0.96
O=C1CC(NC2CCCC2)CN1CCCc1ccccc1 (configuration not stated)	–	0.838
Cc1ccc(C(=O)Nc2ccc(N3CCC(NCC4CCCN(C(C)C)C4)CC3)cc2)c(C)c1 (configuration not stated)	0.823	–
O=C(NCCCc1ccccn1)c1ccc(N2CCN(C3CCCC3)CC2)nc1	–	0.982
Cc1ccccc1C(NC1CCN(c2ccc(NC(=O)c3cnccn3)cc2)CC1)c1ccncc1 (configuration not stated)	0.019	–
COc1ccc(CCC2CCCN(Cc3[nH]cnc3C)C2)cc1 (configuration not stated)	0.843	–
